# Counter-ions that a name gives are not always drawn.
# Experiment: DTNB assay for free sulfhydryls
# Details: 0.25 mM Cys or GSH, pH 8, 30 min, 37° C.
# Description: FIG. 12: XB05 is Weakly Reactive with Thiols In Vitro: 0.25 mM Cysteine (Cys, top panel) or glutathione (GSH, bottom panel) were incubated with XB05, diethyl maleate (DEM), or maleimide at the indicated concentrations, or with an equivalent amount of vehicle (DMSO), for 30 min at 37° C. 5,5′-Dithiobis-2-nitrobenzoic acid (DTNB) assays were conducted as described in Methods. Absorbance for triplicate wells was determined at 412 nm. Points represent the mean and standard deviation for triplicate wells. Data shown are representative of two independent experiments.
# Dithiobis-2-nitrobenzoic Acid (DTNB) Assay for Free Sulfhydryls. For each experiment, a 20× working solution of DTNB (2 mM DTNB, 50 mM sodium acetate in 100 mM Tris-HCl, pH 8.0) and 2× solutions of cysteine and GSH (0.5 mM in 100 mM Tris-HCl, pH 8.0) were freshly prepared. 10 mM stock solutions of XB05, diethyl maleate and maleimide were prepared in 100% DMSO, and subsequently serially diluted to 2× working solutions in 100 mM Tris-HCl, pH 8.0. 100 μl each of thiol compounds (final concentration 0.25 mM) and thiol-reactive compounds (final concentrations 0.05-5 mM) or vehicle control (DMSO) were added in duplicate to a 96-well plate and allowed to incubate at 37° C. for 30 minutes. […] Absorbance was read on a Biotek HT Synergy Plate reader (Winooski, Vt.) at 412 nm.
smiles,measurement,value
"CCOC(=O)/C=C\C(=O)OCC [DEM, diethyl maleate, reference compound]",reactivity with free Cys or GSH,"less reactive than maleimide, but still more reactive than XB05"

# From US9737493B2, “Compositions and methods for modulating DNMT1 inhibitor activity” (University of Louisville Research Foundation, Inc., priority 2012, dated 2017)
